Results on 52 molecules are retold here after patent US20230365684A1.

Protein sequences, listed by entry. Tags and fused reporters are not part of them. Residues count along the entry.
UniProt P20138, residues 18-259: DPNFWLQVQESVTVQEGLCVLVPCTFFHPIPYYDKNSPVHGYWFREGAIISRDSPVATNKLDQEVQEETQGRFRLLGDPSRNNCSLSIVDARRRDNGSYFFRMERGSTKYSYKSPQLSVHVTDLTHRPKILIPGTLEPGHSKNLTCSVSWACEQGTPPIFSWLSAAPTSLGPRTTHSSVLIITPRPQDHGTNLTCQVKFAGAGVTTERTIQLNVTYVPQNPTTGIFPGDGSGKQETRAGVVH

Numbering of substitutions follows the chain as printed. No constants are given. Whether binding was seen depends on the method and setting. Some binding calls cover weakened binding; strength is not graded here.

The labels stand for the following.
B1: C33B1516VL1-1 (scFv)
scFv: QSVLTQPPSASGTPGQRVTISCSGSSSNIGSNIVNWYQQFPGTAPKLLLYSDNQRPSGVPDRFSGSKSGTSASLAISGLQSEDEADYYCAAWDDSLVGPVFGTGTKVTVLGGSEGKSSGSGSESKSTGGSQVQLQESGPGLVKPSETLSLTCSVSGGSIRNYYWSWIRQSAGKELEWFGHIFSTGHINYDSSLKSRVTMSVDTSNNQFSLKLRSVTAADTAVYYCARDNGAALFDFWGQGTLVTVSS
B2: C33B1516VH1-21 (scFv)
scFv: B1 scFv with V97N, N229R
B3: C33B1516VH1-56 (scFv)
scFv: B1 scFv with V97N, N229I
B4: C33B1516VL2-7 (scFv)
scFv: B1 scFv with V97N, G98R
B5: C33B1516VL2-35 (scFv)
scFv: B1 scFv with V97N, G98A
B6: C33B1516VL2-37 (scFv)
scFv: B1 scFv with V97N, G98N
B7: C33B1516VH1-27 (scFv)
scFv: B1 scFv with V97N, N229L
B8: C33B1516VL1-41 (scFv)
scFv: B1 scFv with V97D
B9: C33B1516VL2-11 (scFv)
scFv: B1 scFv with V97N, G98W
B10: C33B1516VL1-90 (scFv)
scFv: B1 scFv with V97H
B11: C33B1516VL1-2 (scFv)
scFv: B1 scFv with V97R
B12: C33B1516VL2-38 (scFv)
scFv: B1 scFv with V97N, G98K
B13: C33B1516VL1-4 (scFv)
scFv: B1 scFv with V97P
B14: C33B1516VL1-11 (scFv)
scFv: B1 scFv with V97G
B15: C33B1516VL1-30 (scFv)
scFv: B1 scFv with V97E
B16: C33B1516VH1-3 (scFv)
scFv: B1 scFv with V97N, N229S
B17: scFv based on C33B1516 (parental clone of the NNK library) (scFv)
scFv: B1 scFv with V97N
B18: C33B1516VH1-17 (scFv)
scFv: B1 scFv with V97N, N229F
B19: C33B1516VL1-23 (scFv)
scFv: B1 scFv with V97Y
B20: 3B1516VL1-10 (scFv)
scFv: B1 scFv with V97T
B21: C33B1516VH1-10 (scFv)
scFv: B1 scFv with V97N, N229K
B22: C33B1516VL1-14 (scFv)
scFv: B1 scFv with V97Q
B23: C33B1516VH1-4 (scFv)
scFv: B1 scFv with V97N, N229E
B24: C33B1516VL1-63 (scFv)
scFv: B1 scFv with V97I
B25: C33B1516VL1-22 (scFv)
scFv: B1 scFv with V97L
B26: C33B1516VL2-10 (scFv)
scFv: B1 scFv with V97N, G98E
B27: C33B1516VL2-4 (scFv)
scFv: B1 scFv with V97N, G98P
B28: C33B1516VL1-39 (scFv)
scFv: B1 scFv with V97F
B29: C33B1516VL2-90 (scFv)
scFv: B1 scFv with V97N, G98L
B30: C33B1516VL2-3 (scFv)
scFv: B1 scFv with V97N, G98V
B31: C33B1516VH1-8 (scFv)
scFv: B1 scFv with V97N, N229G
B32: C33B1516VH1-13 (scFv)
scFv: B1 scFv with V97N, N229T
B33: C33B1516VL1-20 (scFv)
scFv: B1 scFv with V97A
B34: C33B1516VH2-8 (scFv)
scFv: B1 scFv with V97N, G230S
B35: C33B1516VH1-7 (scFv)
scFv: B1 scFv with V97N, N229A
B36: C33B1516VL2-8 (scFv)
scFv: B1 scFv with V97N, G98D
B37: C33B1516VL1-16 (scFv)
scFv: B1 scFv with V97S
B38: C33B1516VL2-29 (scFv)
scFv: B1 scFv with V97N, G98Y
B39: C33B1516VH2-9 (scFv)
scFv: B1 scFv with V97N, G230A
B40: C33B1475VH1-36 (scFv)
scFv: DIVMTQSPLSLPVTPGEPASISCRSSQSLLHSDGYNYLDWYLQKSGQSPQLLIYLGSYRASGVPDRFSGSGSGTDFTLKISRVEAEDVGIYYCMQVLQTPWTFGQGTKVEIKGGSEGKSSGSGSESKSTGGSEVQLVESGGGLVQPGGSLRLSCVVSGFTFSSYWMTWVRQAPGKGLEWVANIKQVGSERYYVDSVKGRFTISRDSAKNSLYLQMNSLRAEDTAVYYCAREVGYNWNQGGYFDYWGQGTLVTVSS
B41: C33B1475VH1-63 (scFv)
scFv: B40 scFv with V186F
B42: scFv based on C33B1475 (parental clone of the NNK library) (scFv)
scFv: B40 scFv with V186D
B43: C33B1475VH2-86 (scFv)
scFv: B40 scFv with V186D, G187H
B44: C33B1475VH2-16 (scFv)
scFv: B40 scFv with V186D, G187P
B45: C33B1475VH2-24 (scFv)
scFv: B40 scFv with V186D, G187L
B46: C33B1475VH2-35 (scFv)
scFv: B40 scFv with V186D, G187Q
B47: C33B1475VH2-12 (scFv)
scFv: B40 scFv with V186D, G187V
B48: C33B1475VH2-58 (scFv)
scFv: B40 scFv with V186D, G187T
B49: C33B1475VH2-22 (scFv)
scFv: B40 scFv with V186D, G187A
B50: C33B1475VH2-20 (scFv)
scFv: B40 scFv with V186D, G187R
B51: C33B1475VH1-46 (scFv)
scFv: B40 scFv with V186T
B52: C33B1475VH1-89 (scFv)
scFv: B40 scFv with V186W

The assay concerns the target CD33 plated on 96 well plates (binding ELISA of Example 20) (UniProt P20138). Nature of the assay: ELISA on plated CD33, E. coli supernatant heated at 55/60/65 °C, luminescence as percent of RT. For orientation: An ELISA detects its analyte on a solid surface through an enzyme-linked reagent.
In the case of B1, the binding result is “binds”.

Take B2: the binding entry is given as “binds”.

B3: the binding entry is listed as “binds”.

B4: the binding entry is recorded as “binds”.

In the case of B5, the binding entry is “binds”.

For B6, the binding result is “binds”.

With B7, the binding entry was “binds”.

Regarding B8, the binding entry was “binds”.

With B9, the binding entry was “binds”.

Regarding B10, the binding result is “binds”.

Consider B11, for which the binding result is reported as “binds”.

In the case of B12, the binding result is on record as “binds”.

Regarding B13, the binding entry was “binds”.

For B14, the binding entry was “binds”.

For the molecule B15, the binding result is reported as “binds”.

B16: the binding entry is reported as “binds”.

For B17, the binding result is “binds”.

As to B18, the binding entry is “binds”.

B19: the binding result was “binds”.

As to B20, the binding result is given as “binds”.

Turning to B21, the binding result was “binds”.

In the case of B22, the binding entry is listed as “binds”.

Take B23: the binding result is “binds”.

For the molecule B24, the binding result is given as “binds”.

For B25, the binding result is “binds”.

B26: the binding entry was “binds”.

Take B27: the binding result was “binds”.

Take B28: the binding entry is recorded as “binds”.

As to B29, the binding result is “binds”.

With B30, the binding entry is “binds”.

Regarding B31, the binding result was “binds”.

Regarding B32, the binding entry is recorded as “binds”.

In the case of B33, the binding entry was “binds”.

As to B34, the binding entry is reported as “binds”.

For B35, the binding entry was “binds”.

In the case of B36, the binding result is listed as “binds”.

For B37, the binding result is on record as “binds”.

On to B38, for which the binding entry is listed as “binds”.

Consider B39, for which the binding entry is given as “binds”.

Regarding B40, the binding entry is listed as “binds”.

B41: the binding result was “binds”.

Regarding B42, the binding result is “binds”.

On to B43, for which the binding result is on record as “binds”.

Turning to B44, the binding entry is listed as “binds”.

On to B45, for which the binding result was “binds”.

As for B46, the binding entry is “binds”.

Consider B47, for which the binding result is listed as “binds”.

Regarding B48, the binding result was “binds”.

For B49, the binding entry was “binds”.

B50: the binding result is “binds”.

For the molecule B51, the binding result is on record as “binds”.

Regarding B52, the binding result is “binds”.
